PubChem BioAssay AID1259424 | University of Nebraska Medical Center | 2018
Here is a random part of about 14,000 deposited reagents. 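Higher correlation or smaller distance means closer resemblance to KSR1 loss; control wells, including KSR1 knockdowns, recur on many plates.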 Some reagents were tested in more than one well and are listed for each. Further read-outs or replicates are left out here. Reagent sequences are not shown. Not stated in the record: the time to read-out.

Screen: 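Rank knockdowns across the genome by resemblance to the KSR1 depletion profile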 (primary screen)
Cells: human HCT116 colon cancer cells
Reagent: siRNA pool against human genes, 50 nM
Detection: 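Log2 levels of six mRNAs (branched-DNA multiplex), adjusted by two reference genes and the non-targeting median, then scored against the average KSR1 knockdown pattern as Pearson r and euclidean distance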
Direction: mean correlation with KSR1 profile and KSR1 correlation: higher = expression change more like KSR1 knockdown; mean distance from KSR1 profile: higher = expression change less like KSR1 knockdown

no.	gene knocked down	mean correlation with KSR1 profile	mean distance from KSR1 profile	KSR1 correlation, replicate 1	KSR1 correlation, replicate 2
1	UNC119	0.307	2.47	0.34	0.288
2	ZC3H8	0.641	1.66	0.649	0.379
3	RGS18	-0.349	1.64	-0.431	-0.578
4	ARID1A	-0.176	1.78	0.268	0.0017
5	CD300LB	-0.0616	2.6	0.0888	-0.356
6	DHRS9	0.714	1.62	0.79	0.85
7	DET1	-0.512	2.8	-0.313	-0.573
8	PTGES3	-0.0205	1.98	-0.14	-0.0848
9	DDX42	0.256	3.21	0.237	0.311
10	TEX101	0.289	2.46	0.271	0.226
11	TLE2	0.412	1.47	0.309	0.578
12	SZT2	-0.249	2.5	-0.215	-0.382
13	TUFM	-0.466	2.89	-0.357	-0.487
14	CCT7	-0.0861	2.85	-0.0435	0.0127
15	ZXDA	-0.582	4.37	-0.612	-0.566
16	KCNN1	-0.363	3.03	-0.398	-0.31
17	ACKR2	0.686	1.99	-0.686	0.805
18	PPME1	-0.131	1.6	-0.362	0.066
19	PHKA2	0.226	2.25	0.404	0.201
20	IL3RA	0.362	1.45	0.347	0.311
21	NGRN	-0.806	2.52	-0.837	-0.617
22	ILRUN	-0.467	2.02	-0.498	-0.374
23	HMGB1P10	0.37	0.983	0.573	-0.207
24	POLE	0.73	1.35	0.71	0.781
25	L1TD1	0.0607	2.27	0.0121	0.071
26	NBPF3	0.297	1.41	0.616	0.395
27	PHKG1	-0.077	2.27	0.0884	0.114
28	F2RL2	0.461	1.99	0.37	0.627
29	RMP24	-0.0829	3.6	-0.183	-0.0787
30	RBFOX2	-0.389	3.31	-0.271	-0.31
31	GNG11	0.829	2.01	0.477	0.773
32	RGS14	0.665	1.67	0.643	0.682
33	SOX2	0.377	2.94	0.317	0.624
34	KLF3-AS1	0.424	1.67	0.41	0.605
35	FBXO38	0.472	2.47	0.375	0.475
36	PPARGC1A	-0.0162	2.85	0.226	0.233
37	TWF2	-0.3	1.95	0.435	-0.341
38	NFASC	-0.497	2.79	-0.47	-0.458
39	POMT2	0.0686	3.44	0.013	0.0874
40	ZFP36L2	-0.465	3.76	-0.431	-0.542
41	NR4A2	0.718	1.69	0.852	0.635
42	ZNF24	-0.569	4.08	-0.454	-0.51
43	HSPH1	0.848	0.649	0.833	0.767
44	GOLGA2P5	-0.519	2.62	-0.604	-0.0889
45	PNOC	0.704	0.969	0.719	0.67
46	TXLNGY	0.901	1.01	0.921	0.791
47	ANLN	-0.0418	2.26	-0.0757	-0.0459
48	IFT80	0.145	1.51	-0.171	0.187
49	CAPRIN1	-0.623	2.93	-0.636	-0.742
50	SAA1	-0.0779	1.81	0.0365	-0.229
51	TRA2B	-0.156	3.23	-0.19	-0.277
52	SOD2	0.811	1.3	0.736	0.802
53	GATAD1	-0.587	1.54	-0.485	-0.565
54	SLC12A6	-0.476	2.03	-0.549	-0.674
55	BAIAP3	0.369	1.78	0.599	0.392
56	DPYSL4	0.281	1.38	0.333	0.108
57	HDAC9	-0.447	1.89	-0.418	-0.564
58	APLNR	0.831	1.83	0.783	0.811
59	TEX10	0.0148	3.09	-0.0173	-0.0357
60	AKIP1	-0.618	5.69	-0.317	-0.365
61	PDLIM3	-0.781	1.68	-0.684	-0.687
62	PDLIM3	0.0201	2.01	-0.0823	0.277
63	RARS2	0.328	3.26	0.388	0.0917
